# These are yes or no findings as the source states them, for the method shown. In cells and extracts the contact can be indirect. For some of these results: Binding can be weak; no strength is given. Sequences can lack the tags named with a protein.
# T1: FLAG-tagged endoglin (UniProt P17813)
# T1 sequence: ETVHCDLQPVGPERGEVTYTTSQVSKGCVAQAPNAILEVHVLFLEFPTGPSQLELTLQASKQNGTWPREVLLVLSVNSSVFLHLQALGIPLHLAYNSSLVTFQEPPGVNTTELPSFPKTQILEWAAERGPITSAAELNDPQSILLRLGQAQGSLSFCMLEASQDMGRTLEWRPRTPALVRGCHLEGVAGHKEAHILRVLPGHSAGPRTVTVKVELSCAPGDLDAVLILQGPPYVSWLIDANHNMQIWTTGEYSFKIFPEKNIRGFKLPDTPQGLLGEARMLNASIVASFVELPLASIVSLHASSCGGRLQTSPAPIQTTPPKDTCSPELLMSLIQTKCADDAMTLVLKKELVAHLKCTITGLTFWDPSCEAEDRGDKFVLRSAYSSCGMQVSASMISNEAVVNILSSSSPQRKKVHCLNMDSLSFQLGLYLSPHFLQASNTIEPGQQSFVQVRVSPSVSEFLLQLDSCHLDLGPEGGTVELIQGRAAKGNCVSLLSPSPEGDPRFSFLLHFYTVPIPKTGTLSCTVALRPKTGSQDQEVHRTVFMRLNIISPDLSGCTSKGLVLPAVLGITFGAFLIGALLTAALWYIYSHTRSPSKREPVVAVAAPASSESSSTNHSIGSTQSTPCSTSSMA
# B1: FLAG-tagged endoglin (receptor, UniProt P17813 26-658)
# chain: T1 sequence
# B2: untagged endoglin (receptor, UniProt P17813 26-658)
# chain: T1 sequence
# Legend:
# FLAG-tagged endoglin = molecular target: T1, FLAG-tagged endoglin; experiment: co-IP; PC3-M cells transiently co-transfected; surface proteins crosslinked with 2 mM DTSSP before lysis (10 mM Tris HCl pH 7.4, 145 mM NaCl, 10% glycerol, 0.5% NP-40); IP with anti-FLAG or anti-Myc overnight at 4°C; crosslinker cleaved before Western blot
# [1] = molecular target: Myc-tagged ActRIIA lacking the kinase domain; experiment: as above
# [2] = molecular target: FLAG-tagged BMPRII with the tail domain deleted; experiment: as above
# [3] = molecular target: FLAG-tagged BMPRII with the tail domain deleted; experiment: condition: only without crosslinking of cell surface proteins; co-IP; as a1 but surface proteins of the PC3-M cells not crosslinked (-); FLAG-BMPRII immunoprecipitated, blot for endoglin
molecule,measurement,setting,value
Myc-tagged ActRIIA lacking the kinase domain (domain or fragment),binding,FLAG-tagged endoglin,binds
B1,binding,[1],binds
B2,binding,[2],binds
same,binding,[3],no binding

# Reference: article PMC3742533
